# From the supplement of paper PMC8728848
# The other results are listed elsewhere or left out.
# B1: FimA-N2 (Actinomyces oris) (protein)
# chain: MHHHHHHSSGVDLGTENLYFQSNAWIYDVNVYPKNEAIDVDKTIQAQKLNGYGVGSLIKFPVESTAPTLDAKSFYKYFQLKDTLDERLSEVTATDVSLEGTPLQPTDYKVETKQQTVTVTFTAEGLKKIKAAPGKKVSAVFQGKVTKAGNGAITNRAQVISDTLYAEQPPTPETPPTDPENPPTSDEVISRWGDLSIKKVDTHQQGQTKA
# Experiments:
# Test in all cases: glycan array binding signal (z-score within array); higher = stronger binding
# Settings in all cases: glycan notation: IUPAC condensed, linker removed
# [1] = biological target: Neu5Ac(a2-3)Gal(b1-4)GlcNAc(b1-2)[Neu5Ac(a2-3)Gal(b1-4)GlcNAc(b1-4)]Man(a1-3)[GlcNAc(b1-4)][Neu5Ac(a2-3)Gal(b1-4)GlcNAc(b1-4)Man(a1-6)]Man(b1-4)GlcNAc(b1-4)GlcNAc
# In short: (§1)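 Negative Z-scores can be read as non-binding. The Z-score is calculated within each array and then averaged across arrays of one protein sequence at different concentrations or buffers and across linkers. Arrays, 3228 in all, were curated from the Consortium for Functional Glycomics database and kept only where the protein sequence was available.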
# [2] = biological target: Neu5Ac(a2-3)Gal(b1-4)GlcNAc(b1-2)[Neu5Ac(a2-3)Gal(b1-4)GlcNAc(b1-6)]Man(a1-6)[Neu5Ac(a2-3)Gal(b1-4)GlcNAc(b1-2)Man(a1-3)]Man(b1-4)GlcNAc(b1-4)GlcNAc
# In short: as §1
# [3] = biological target: Neu5Ac(a2-3)Gal(b1-4)GlcNAc(b1-2)[Neu5Ac(a2-3)Gal(b1-4)GlcNAc(b1-6)]Man(a1-6)[Neu5Ac(a2-3)Gal(b1-4)GlcNAc(b1-2)Man(a1-3)][GlcNAc(b1-4)]Man(b1-4)GlcNAc(b1-4)GlcNAc
# In short: as §1
# [4] = biological target: Neu5Ac(a2-3)Gal(b1-4)GlcNAc(b1-3)Gal
# In short: as §1
# [5] = biological target: Neu5Ac(a2-3)Gal(b1-4)GlcNAc(b1-3)Gal(b1-3)GlcNAc
# In short: as §1
# [6] = biological target: Neu5Ac(a2-3)Gal(b1-4)GlcNAc(b1-3)Gal(b1-4)GlcNAc
# In short: as §1
# [7] = biological target: Neu5Ac(a2-3)Gal(b1-4)GlcNAc(b1-3)Gal(b1-4)GlcNAc(b1-2)Man(a1-3)[Neu5Ac(a2-3)Gal(b1-4)GlcNAc(b1-3)Gal(b1-4)GlcNAc(b1-2)Man(a1-6)]Man(b1-4)GlcNAc(b1-4)GlcNAc
# In short: as §1
# [8] = biological target: Neu5Ac(a2-3)Gal(b1-4)GlcNAc(b1-3)Gal(b1-4)GlcNAc(b1-3)Gal(b1-4)GlcNAc
# In short: as §1
# [9] = biological target: Neu5Ac(a2-3)Gal(b1-4)GlcNAc(b1-3)Gal(b1-4)GlcNAc(b1-3)Gal(b1-4)GlcNAc(b1-2)Man(a1-3)[Neu5Ac(a2-3)Gal(b1-4)GlcNAc(b1-3)Gal(b1-4)GlcNAc(b1-3)Gal(b1-4)GlcNAc(b1-2)Man(a1-6)]GalNAc
# In short: as §1
# [10] = biological target: Neu5Ac(a2-3)Gal(b1-4)GlcNAc(b1-3)Gal(b1-4)GlcNAc(b1-3)GalNAc
# In short: as §1
# [11] = biological target: Neu5Ac(a2-3)Gal(b1-4)GlcNAc(b1-3)Gal(b1-4)GlcNAc(b1-3)[Neu5Ac(a2-3)Gal(b1-4)GlcNAc(b1-3)Gal(b1-4)GlcNAc(b1-6)]GalNAc
# In short: as §1
# [12] = biological target: Neu5Ac(a2-3)Gal(b1-4)GlcNAc(b1-3)Gal(b1-4)GlcNAc(b1-6)[Gal(b1-3)]GalNAc
# In short: as §1
# [13] = biological target: Neu5Ac(a2-3)Gal(b1-4)GlcNAc(b1-3)Gal(b1-4)[Fuc(a1-3)]GlcNAc
# In short: as §1
# [14] = biological target: Neu5Ac(a2-3)Gal(b1-4)GlcNAc(b1-3)GalNAc
# In short: as §1
# [15] = biological target: Neu5Ac(a2-3)Gal(b1-4)GlcNAc(b1-3)[Neu5Ac(a2-3)Gal(b1-4)GlcNAc(b1-6)]GalNAc
# In short: as §1
# [16] = biological target: Neu5Ac(a2-3)Gal(b1-4)GlcNAc(b1-6)GalNAc
# In short: as §1
# [17] = biological target: Neu5Ac(a2-3)Gal(b1-4)GlcNAc(b1-6)[Gal(b1-3)]GalNAc
# In short: as §1
# [18] = biological target: Neu5Ac(a2-3)Gal(b1-4)GlcNAc(b1-6)[Neu5Ac(a2-3)Gal(b1-3)]GalNAc
# In short: as §1
# [19] = biological target: Neu5Ac(a2-3)Gal(b1-4)GlcNAc6S
# In short: as §1
# [20] = biological target: Neu5Ac(a2-3)Gal(b1-4)[Fuc(a1-3)]GlcNAc
# In short: as §1
# [21] = biological target: Neu5Ac(a2-3)Gal(b1-4)[Fuc(a1-3)]GlcNAc(b1-2)Man
# In short: as §1
# [22] = biological target: Neu5Ac(a2-3)Gal(b1-4)[Fuc(a1-3)]GlcNAc(b1-3)Gal
# In short: as §1
# [23] = biological target: Neu5Ac(a2-3)Gal(b1-4)[Fuc(a1-3)]GlcNAc(b1-3)Gal(b1-4)GlcNAc
# In short: as §1
# [24] = biological target: Neu5Ac(a2-3)Gal(b1-4)[Fuc(a1-3)]GlcNAc(b1-3)Gal(b1-4)[Fuc(a1-3)]GlcNAc(b1-3)Gal(b1-4)[Fuc(a1-3)]GlcNAc
# In short: as §1
# [25] = biological target: Neu5Ac(a2-3)Gal(b1-4)[Fuc(a1-3)]GlcNAc(b1-3)GalNAc
# In short: as §1
# [26] = biological target: Neu5Ac(a2-3)Gal(b1-4)[Fuc(a1-3)]GlcNAc(b1-6)[Gal(b1-3)]GalNAc
# In short: as §1
# [27] = biological target: Neu5Ac(a2-3)Gal(b1-4)[Fuc(a1-3)]GlcNAc(b1-6)[Neu5Ac(a2-3)Gal(b1-3)]GalNAc
# In short: as §1
# [28] = biological target: Neu5Ac(a2-3)Gal(b1-4)[Fuc(a1-3)]GlcNAc6S
# In short: as §1
# [29] = biological target: Neu5Ac(a2-3)Gal6S(b1-4)GlcNAc
# In short: as §1
# [30] = biological target: Neu5Ac(a2-3)Gal6S(b1-4)[Fuc(a1-3)]GlcNAc
# In short: as §1
# Neu5Ac(a2-3)GalNAc = biological target: Neu5Ac(a2-3)GalNAc
# In short: as §1
# [31] = biological target: Neu5Ac(a2-3)GalNAc(b1-4)GlcNAc
# In short: as §1
# [32] = biological target: Neu5Ac(a2-3)[GalNAc(b1-4)]Gal(b1-4)Glc
# In short: as §1
# [33] = biological target: Neu5Ac(a2-3)[GalNAc(b1-4)]Gal(b1-4)GlcNAc
# In short: as §1
# [34] = biological target: Neu5Ac(a2-3)[GalNAc(b1-4)]Gal(b1-4)GlcNAc(b1-3)GalNAc
# In short: as §1
# [35] = biological target: Neu5Ac(a2-3)[Neu5Ac(a2-6)]GalNAc
# In short: as §1
# Neu5Ac(a2-6)Gal = biological target: Neu5Ac(a2-6)Gal
# In short: as §1
# [36] = biological target: Neu5Ac(a2-6)Gal(b1-3)GlcNAc(b1-3)[Gal(b1-4)GlcNAc(b1-6)]Gal(b1-4)Glc
# In short: as §1
# Neu5Ac(a2-6)Gal(b1-4)Glc = biological target: Neu5Ac(a2-6)Gal(b1-4)Glc
# In short: as §1
# [37] = biological target: Neu5Ac(a2-6)Gal(b1-4)GlcNAc
# In short: as §1
# [38] = biological target: Neu5Ac(a2-6)Gal(b1-4)GlcNAc(b1-2)Man
# In short: as §1
# [39] = biological target: Neu5Ac(a2-6)Gal(b1-4)GlcNAc(b1-2)Man(a1-3)Man(b1-4)GlcNAc(b1-4)GlcNAc
# In short: as §1
# [40] = biological target: Neu5Ac(a2-6)Gal(b1-4)GlcNAc(b1-2)Man(a1-3)[Gal(b1-4)GlcNAc(b1-2)Man(a1-6)]Man(b1-4)GlcNAc(b1-4)GlcNAc
# In short: as §1
# [41] = biological target: Neu5Ac(a2-6)Gal(b1-4)GlcNAc(b1-2)Man(a1-3)[GlcNAc(b1-2)Man(a1-6)]Man(b1-4)GlcNAc(b1-4)GlcNAc
# In short: as §1
# [42] = biological target: Neu5Ac(a2-6)Gal(b1-4)GlcNAc(b1-2)Man(a1-3)[GlcNAc(b1-4)][Neu5Ac(a2-6)Gal(b1-4)GlcNAc(b1-2)Man(a1-6)]Man(b1-4)GlcNAc(b1-4)GlcNAc
# In short: as §1
binder,measurement,setting,value
B1,glycan array binding signal (z-score),[1],-0.483
same,glycan array binding signal (z-score),[2],-0.853
same,glycan array binding signal (z-score),[3],-0.874
same,glycan array binding signal (z-score),[4],-0.62
same,glycan array binding signal (z-score),[5],-0.995
same,glycan array binding signal (z-score),[6],-0.149
same,glycan array binding signal (z-score),[7],-0.355
same,glycan array binding signal (z-score),[8],1.11
same,glycan array binding signal (z-score),[9],0.122
same,glycan array binding signal (z-score),[10],-0.528
same,glycan array binding signal (z-score),[11],-0.786
same,glycan array binding signal (z-score),[12],-0.607
same,glycan array binding signal (z-score),[13],-0.379
same,glycan array binding signal (z-score),[14],-0.365
same,glycan array binding signal (z-score),[15],-0.935
same,glycan array binding signal (z-score),[16],1.38
same,glycan array binding signal (z-score),[17],0.27
same,glycan array binding signal (z-score),[18],-1.4
same,glycan array binding signal (z-score),[19],1.27
same,glycan array binding signal (z-score),[20],-1.19
same,glycan array binding signal (z-score),[21],-1.21
same,glycan array binding signal (z-score),[22],-0.499
same,glycan array binding signal (z-score),[23],0.553
same,glycan array binding signal (z-score),[24],-0.098
same,glycan array binding signal (z-score),[25],0.659
same,glycan array binding signal (z-score),[26],1.73
same,glycan array binding signal (z-score),[27],-0.322
same,glycan array binding signal (z-score),[28],0.808
same,glycan array binding signal (z-score),[29],-0.089
same,glycan array binding signal (z-score),[30],-0.662
same,glycan array binding signal (z-score),Neu5Ac(a2-3)GalNAc,-0.244
same,glycan array binding signal (z-score),[31],0.59
same,glycan array binding signal (z-score),[32],-0.484
same,glycan array binding signal (z-score),[33],-1.35
same,glycan array binding signal (z-score),[34],0.146
same,glycan array binding signal (z-score),[35],-1.07
same,glycan array binding signal (z-score),Neu5Ac(a2-6)Gal,-0.241
same,glycan array binding signal (z-score),[36],-0.177
same,glycan array binding signal (z-score),Neu5Ac(a2-6)Gal(b1-4)Glc,0.148
same,glycan array binding signal (z-score),[37],-0.75
same,glycan array binding signal (z-score),[38],-0.501
same,glycan array binding signal (z-score),[39],-1.15
same,glycan array binding signal (z-score),[40],-0.171
same,glycan array binding signal (z-score),[41],-0.634
same,glycan array binding signal (z-score),[42],-1.7

# 3 entries picked at random from those above, as already listed:
binder,measurement,setting,value
B1,glycan array binding signal (z-score),[28],0.808
same,glycan array binding signal (z-score),[18],-1.4
same,glycan array binding signal (z-score),[13],-0.379
